Source: the supplement of paper PMC4604168 (melanoma cell lines)
This is one part of the list. Single values are uncertain, as repeats are few or missing.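 Imaging used 1,536-well plates; nuclei positive for cleaved PARP by antibody were divided by total DNA-stained nuclei to yield the apoptosis fraction. Doses for screening kept most cells viable, and cell lines differ markedly in resting and induced cleaved-PARP levels.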

Experiments:
Test in all cases: cleaved PARP positive nuclei fraction relative to DMSO control; melanoma cells; higher = more apoptosis
Conditions in all cases: library dose: low library concentration; 72 h
COLO792 = tested on: COLO792
COLO800 = tested on: COLO800
COLO829 = tested on: COLO829
G361 = tested on: G361
IPC-298 = tested on: IPC-298
IST-MEL1 = tested on: IST-MEL1
LB2518-MEL = tested on: LB2518-MEL
LOXIMVI = tested on: LOXIMVI
MEL-HO = tested on: MEL-HO
MZ2-MEL = tested on: MZ2-MEL
MeWo = tested on: MeWo
RPMI7951 = tested on: RPMI7951
RVH-421 = tested on: RVH-421
SkMel28 = tested on: SkMel28
SkMel2 = tested on: SkMel2
SkMel30 = tested on: SkMel30
SkMel5 = tested on: SkMel5
UACC257 = tested on: UACC257
UACC62 = tested on: UACC62

| Structure (SMILES) | cleaved PARP positive nuclei fraction (COLO792) [%] | cleaved PARP positive nuclei fraction (COLO800) [%] | cleaved PARP positive nuclei fraction (COLO829) [%] | cleaved PARP positive nuclei fraction (G361) [%] | cleaved PARP positive nuclei fraction (IPC-298) [%] | cleaved PARP positive nuclei fraction (IST-MEL1) [%] | cleaved PARP positive nuclei fraction (LB2518-MEL) [%] | cleaved PARP positive nuclei fraction (LOXIMVI) [%] | cleaved PARP positive nuclei fraction (MEL-HO) [%] | cleaved PARP positive nuclei fraction (MZ2-MEL) [%] | cleaved PARP positive nuclei fraction (MeWo) [%] | cleaved PARP positive nuclei fraction (RPMI7951) [%] | cleaved PARP positive nuclei fraction (RVH-421) [%] | cleaved PARP positive nuclei fraction (SkMel28) [%] | cleaved PARP positive nuclei fraction (SkMel2) [%] | cleaved PARP positive nuclei fraction (SkMel30) [%] | cleaved PARP positive nuclei fraction (SkMel5) [%] | cleaved PARP positive nuclei fraction (UACC257) [%] | cleaved PARP positive nuclei fraction (UACC62) [%] |
| --- | --- | --- | --- | --- | --- | --- | --- | --- | --- | --- | --- | --- | --- | --- | --- | --- | --- | --- | --- |
| Cc1ccc(Nc2nccc(N(C)c3ccc4c(C)n(C)nc4c3)n2)cc1S(N)(=O)=O [Pazopanib] + CN(C)S(=O)(=O)c1ccc2c(c1)/C(=C/c1cc3c([nH]1)CCCC3)C(=O)N2 [SU6656] (first compound 0.4 µM, partner dose 0.4 µM) | 55.4 | 77.4 | 53.5 | 122 | 118 | 201 | 70.7 | 186 | 147 | 100 | 112 | 60.8 | 201 | 72.9 | 51.1 | 84.8 | 66.7 | 135 | 43.2 |
| COc1cc([C@@H]2c3cc4c(cc3[C@@H](O[C@@H]3O[C@@H]5CO[C@@H](C)O[C@H]5[C@H](O)[C@H]3O)[C@H]3COC(=O)[C@H]23)OCO4)cc(OC)c1O [etoposide] + C[C@@H]1CCN(C(=O)CC#N)C[C@@H]1N(C)c1ncnc2[nH]ccc12 [CP690550] (first compound 0.02 µM, partner dose 1 µM) | 86.4 | 115 | 70.1 | 64.7 | 175 | 194 | 103 | 59 | 73.8 | 69.1 | 84.6 | 118 | 145 | 112 | 117 | 102 | 128 | 108 | 68 |
| O=c1[nH]nc(Sc2ncc([N+](=O)[O-])s2)n1-c1ccc2c(c1)OCCO2 + NC(=O)Nc1cc(-c2cccc(F)c2)sc1C(=O)N[C@H]1CCCNC1 [AZD7762] (first compound 0.2 µM, partner dose 0.02 µM) | 153 | 150 | 74.3 | 101 | 83.8 | 123 | 63.4 | 22.4 | 101 | 100 | 69 | 59.1 | 81.4 | 219 | 97.9 | 63.2 | 37 | 215 | 92.5 |
| O=c1[nH]nc(Sc2ncc([N+](=O)[O-])s2)n1-c1ccc2c(c1)OCCO2 + CC1(C)NC(=O)N(c2ccc([N+](=O)[O-])c(C(F)(F)F)c2)C1=O [nilutamide] (first compound 0.2 µM, partner dose 1 µM) | 68.1 | 59.1 | 52.3 | 87.4 | 87.8 | 44.7 | 82.4 | 44.3 | 61.7 | 70.1 | 50.8 | 121 | 40.5 | 95.7 | 85 | 59.7 | 135 | 98.7 | 128 |
| CCCCCCCCCCCCCCCCCCOP(=O)([O-])OC1CC[N+](C)(C)CC1 [Perifosine] + NC(=O)Nc1cc(-c2cccc(F)c2)sc1C(=O)N[C@H]1CCCNC1 [AZD7762] (first compound 0.4 µM, partner dose 0.02 µM) | 55.5 | 149 | 67.4 | 107 | 80.7 | 27.9 | 83.8 | 47.7 | 141 | 97 | 60.7 | 163 | 98.5 | 51.4 | 130 | 56.5 | 231 | 110 | 79.1 |
| Cc1ccc(Nc2nccc(N(C)c3ccc4c(C)n(C)nc4c3)n2)cc1S(N)(=O)=O [Pazopanib] + Cc1ccc(NC(=O)c2cccc(N(C)C)c2)cc1NC(=O)c1ccc(O)cc1 [ZM336372] (first compound 0.4 µM, partner dose 2 µM) | 157 | 92.7 | 41.7 | 119 | 117 | 97.7 | 146 | 20.6 | 66.7 | 207 | 51.2 | 109 | 38.3 | 97.7 | 60.3 | 36 | 220 | 109 | 105 |
| Cc1cc(Nc2cc(N3CCN(C)CC3)nc(Sc3ccc(NC(=O)C4CC4)cc3)n2)n[nH]1 [Tozasertib] + COc1cc(Nc2ncc(F)c(Nc3ccc4c(n3)NC(=O)C(C)(C)O4)n2)cc(OC)c1OC [Tamatinib] (first compound 0.006 µM, partner dose 0.4 µM) | 312 | 67.9 | 163 | 177 | 81.7 | 113 | 116 | 99.6 | 155 | 249 | 115 | 112 | 103 | 97.1 | 84.1 | 101 | 85 | 77.2 | 48 |
| CC[C@]1(O)C[C@H]2CN(CCc3c([nH]c4ccccc34)[C@@](C(=O)OC)(c3cc4c(cc3OC)N(C=O)[C@H]3[C@@](O)(C(=O)OC)[C@H](OC(C)=O)[C@]5(CC)C=CCN6CC[C@]43[C@@H]65)C2)C1 [vincristine] + CC(C)(C)c1cnc(CSc2cnc(NC(=O)C3CCNCC3)s2)o1 [SNS-032] (first compound 0.0001 µM, partner dose 0.01 µM) | 80.7 | 297 | 91.8 | 124 | 83.8 | 291 | 57.7 | 22.5 | 42.8 | 262 | 105 | 222 | 47.8 | 27.3 | 66.3 | 57.5 | 135 | 325 | 541 |
| CC[C@]1(O)C[C@H]2CN(CCc3c([nH]c4ccccc34)[C@@](C(=O)OC)(c3cc4c(cc3OC)N(C=O)[C@H]3[C@@](O)(C(=O)OC)[C@H](OC(C)=O)[C@]5(CC)C=CCN6CC[C@]43[C@@H]65)C2)C1 [vincristine] + O=C(O)c1ccc(-c2c[nH]c3ncc(-c4ccccc4)cc23)cc1C1CCCC1 [GSK650394] (first compound 0.0001 µM, partner dose 0.16 µM) | 91 | 57.8 | 147 | 87.1 | 46.9 | 124 | 106 | 90.4 | 145 | 186 | 297 | 166 | 49.4 | 181 | 206 | 301 | 110 | 239 | 259 |
| Cc1ccc(Nc2nccc(N(C)c3ccc4c(C)n(C)nc4c3)n2)cc1S(N)(=O)=O [Pazopanib] + NC(=O)Nc1cc(-c2cccc(F)c2)sc1C(=O)N[C@H]1CCCNC1 [AZD7762] (first compound 0.4 µM, partner dose 0.02 µM) | 157 | 136 | 72.6 | 125 | 35.9 | 126 | 176 | 54 | 117 | 61.3 | 49.8 | 223 | 205 | 39.6 | 105 | 73.2 | 65.2 | 28.8 | 81.6 |
| Cc1cn(-c2cc(NC(=O)c3ccc(C)c(Nc4nccc(-c5cccnc5)n4)c3)cc(C(F)(F)F)c2)cn1 [nilotinib] + COc1cc2c(Oc3ccc4[nH]c(C)cc4c3F)ncnc2cc1OCCCN1CCCC1 [cediranib] (first compound 0.2 µM, partner dose 0.4 µM) | 114 | 63.4 | 66.6 | 53.9 | 87.5 | 97.8 | 91.8 | 109 | 134 | 74 | 105 | 104 | 61.3 | 38.8 | 139 | 77 | 69.7 | 152 | 182 |
| CCCCCCCCCCCCCCCCCCOP(=O)([O-])OC1CC[N+](C)(C)CC1 [Perifosine] + O=C(O)c1ccc(-c2c[nH]c3ncc(-c4ccccc4)cc23)cc1C1CCCC1 [GSK650394] (first compound 0.4 µM, partner dose 0.16 µM) | 77.8 | 63.2 | 177 | 116 | 137 | 67 | 85.2 | 50 | 173 | 111 | 88.5 | 153 | 44.8 | 34.3 | 165 | 61.2 | 67.2 | 58.1 | 138 |
| Cc1ccc(Nc2nccc(N(C)c3ccc4c(C)n(C)nc4c3)n2)cc1S(N)(=O)=O [Pazopanib] + CC1(C)NC(=O)N(c2ccc([N+](=O)[O-])c(C(F)(F)F)c2)C1=O [nilutamide] (first compound 0.4 µM, partner dose 1 µM) | 44.1 | 85.6 | 142 | 273 | 47.6 | 64.2 | 84.2 | 49.7 | 108 | 41.4 | 70.8 | 132 | 34.4 | 84.6 | 121 | 72.1 | 50.3 | 63.5 | 127 |
| O=c1[nH]nc(Sc2ncc([N+](=O)[O-])s2)n1-c1ccc2c(c1)OCCO2 + Cc1ccc(NC(=O)c2cccc(N(C)C)c2)cc1NC(=O)c1ccc(O)cc1 [ZM336372] (first compound 0.2 µM, partner dose 2 µM) | 61.5 | 124 | 62.6 | 106 | 102 | 196 | 52.8 | 33.1 | 75.8 | 83.1 | 146 | 55.8 | 107 | 18.9 | 103 | 255 | 75.4 | 104 | 107 |
| Cc1cn(-c2cc(NC(=O)c3ccc(C)c(Nc4nccc(-c5cccnc5)n4)c3)cc(C(F)(F)F)c2)cn1 [nilotinib] + C=CCn1c(=O)c2cnc(Nc3ccc(N4CCN(C)CC4)cc3)nc2n1-c1cccc(C(C)(C)O)n1 [MK1775] (first compound 0.2 µM, partner dose 0.02 µM) | 111 | 52.2 | 63.5 | 102 | 71.3 | 94.8 | 92.7 | 205 | 140 | 81.8 | 97 | 64.3 | 88.3 | 84.2 | 70.8 | 112 | 71.1 | 159 | 41 |
| O=c1[nH]nc(Sc2ncc([N+](=O)[O-])s2)n1-c1ccc2c(c1)OCCO2 + Cn1cncc1[C@@](N)(c1ccc(Cl)cc1)c1ccc2c(c1)c(-c1cccc(Cl)c1)cc(=O)n2C [tipifarnib] (first compound 0.2 µM, partner dose 0.01 µM) | 215 | 139 | 83.9 | 136 | 49.7 | 33.7 | 112 | 94.5 | 111 | 133 | 46.5 | 157 | 270 | 60.1 | 131 | 96.3 | 58.5 | 92.6 | 68.9 |

Part of the list above, set out differently.
Structure (SMILES)	cleaved PARP positive nuclei fraction (COLO792) [%]	cleaved PARP positive nuclei fraction (COLO800) [%]	cleaved PARP positive nuclei fraction (COLO829) [%]	cleaved PARP positive nuclei fraction (G361) [%]	cleaved PARP positive nuclei fraction (IPC-298) [%]	cleaved PARP positive nuclei fraction (IST-MEL1) [%]	cleaved PARP positive nuclei fraction (LB2518-MEL) [%]	cleaved PARP positive nuclei fraction (LOXIMVI) [%]	cleaved PARP positive nuclei fraction (MEL-HO) [%]	cleaved PARP positive nuclei fraction (MZ2-MEL) [%]	cleaved PARP positive nuclei fraction (MeWo) [%]	cleaved PARP positive nuclei fraction (RPMI7951) [%]	cleaved PARP positive nuclei fraction (RVH-421) [%]	cleaved PARP positive nuclei fraction (SkMel28) [%]	cleaved PARP positive nuclei fraction (SkMel2) [%]	cleaved PARP positive nuclei fraction (SkMel30) [%]	cleaved PARP positive nuclei fraction (SkMel5) [%]	cleaved PARP positive nuclei fraction (UACC257) [%]	cleaved PARP positive nuclei fraction (UACC62) [%]
Cc1cc(Nc2cc(N3CCN(C)CC3)nc(Sc3ccc(NC(=O)C4CC4)cc3)n2)n[nH]1 [Tozasertib] + COc1cc(Nc2ncc(F)c(Nc3ccc4c(n3)NC(=O)C(C)(C)O4)n2)cc(OC)c1OC [Tamatinib] (first compound 0.006 µM, partner dose 0.4 µM)	312	67.9	163	177	81.7	113	116	99.6	155	249	115	112	103	97.1	84.1	101	85	77.2	48
CC[C@]1(O)C[C@H]2CN(CCc3c([nH]c4ccccc34)[C@@](C(=O)OC)(c3cc4c(cc3OC)N(C=O)[C@H]3[C@@](O)(C(=O)OC)[C@H](OC(C)=O)[C@]5(CC)C=CCN6CC[C@]43[C@@H]65)C2)C1 [vincristine] + CC(C)(C)c1cnc(CSc2cnc(NC(=O)C3CCNCC3)s2)o1 [SNS-032] (first compound 0.0001 µM, partner dose 0.01 µM)	80.7	297	91.8	124	83.8	291	57.7	22.5	42.8	262	105	222	47.8	27.3	66.3	57.5	135	325	541
CC[C@]1(O)C[C@H]2CN(CCc3c([nH]c4ccccc34)[C@@](C(=O)OC)(c3cc4c(cc3OC)N(C=O)[C@H]3[C@@](O)(C(=O)OC)[C@H](OC(C)=O)[C@]5(CC)C=CCN6CC[C@]43[C@@H]65)C2)C1 [vincristine] + O=C(O)c1ccc(-c2c[nH]c3ncc(-c4ccccc4)cc23)cc1C1CCCC1 [GSK650394] (first compound 0.0001 µM, partner dose 0.16 µM)	91	57.8	147	87.1	46.9	124	106	90.4	145	186	297	166	49.4	181	206	301	110	239	259
